Counter-ions that a name gives are not always drawn. Some of the results follow. The numbers are fractions of the control, whatever unit the source prints. Most values lie at the level of the controls, where differences are scatter.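 A lentiviral reporter stably expressed in MIN6 mouse insulinoma beta cells uses Pdx1 and Ins1 promoters to drive separate nucleus-targeted fluorescent proteins; automated imaging with Hoechst nuclear stain counted cells. Possible hits were drugs shifting Ins1 promoter signal more than two median absolute deviations from DMSO controls, with Pdx1 activity roughly normal.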
tested on: MIN6; assay: % Pdx1+ Ins1-low (RFP-only, immature) cells relative to DMSO control (fold of DMSO control); higher = more immature Pdx1+/Ins1-low cells; details: 8.5 µM; 48 h; glucose 5 mM

Row | Compound | % Pdx1+ Ins1-low
1 | CCCC1O[C@@H]2C[C@H]3[C@@H]4CCC5=CC(=O)C=C[C@]5(C)[C@H]4[C@@H](O)C[C@]3(C)[C@]2(C(=O)CO)O1 (some centres undefined) [Budesonide] | 1.19
2 | CC(C(=O)O)c1cccc(C(=O)c2ccccc2)c1 (centres undefined) [Ketoprofen] | 0.696
3 | CCN(CC)CCOC(=O)C(Cc1cccc2ccccc12)CC1CCCO1 (centres undefined) [Nafronyl oxalate] | 1.23
4 | C[C@H](N)[C@H](O)c1cccc(O)c1 [Metaraminol bitartrate] | 1.35
5 | O=C1CN(/N=C/c2ccc([N+](=O)[O-])o2)C(=O)N1 [Nitrofurantoin] | 1.1
6 | Cc1ccccc1OCC(O)CO (centres undefined) [Mephenesin] | 0.963
7 | CN[C@@H]1[C@@H](O)[C@@H](O[C@@H]2[C@@H](O)[C@H](O[C@H]3OC(CN)=CC[C@H]3N)[C@@H](N)C[C@H]2N)OC[C@]1(C)O [Sisomicin sulfate] | 0.935
8 | Cc1cc(NS(=O)(=O)c2ccc(N)cc2)no1 [Sulfamethoxazole] | 1.01
9 | CC1(C)S[C@@H]2[C@H](NC(=O)[C@H](C(=O)O)c3ccsc3)C(=O)N2[C@H]1C(=O)O [Ticarcillin sodium] | 0.853
10 | CCOC(=O)n1ccn(C)c1=S [Carbimazole] | 0.633
11 | O=C1CN(/N=C/c2ccc(-c3ccc([N+](=O)[O-])cc3)o2)C(=O)N1 [Dantrolene sodium salt] | 1.08
12 | C[C@]12C[C@H](O)[C@H]3[C@@H](CCC4=CC(=O)CC[C@@]43C)[C@@H]1CC[C@@H]2C(=O)CO [Corticosterone] | 1.34
13 | O=c1cc(-c2ccccc2)oc2cc(O)cc(O)c12 [Chrysin] | 0.962
14 | C/C(=C(\CCOP(=O)(O)O)SC(=O)c1ccccc1)N(C=O)Cc1cnc(C)nc1N [Benfotiamine] | 0.921
15 | CCN(CC)C(=S)SSC(=S)N(CC)CC [Disulfiram] | 1.1
16 | O=C(CCCN1CCN(c2ccccn2)CC1)c1ccc(F)cc1 [Azaperone] | 0.855
17 | C#C[C@]1(O)CC[C@H]2[C@@H]3CCC4=CCCC[C@@H]4[C@H]3CC[C@@]21C [Lynestrenol] | 0.622
18 | C[C@H](CCC(=O)O)[C@H]1CC[C@H]2[C@@H]3[C@@H](O)C[C@@H]4C[C@H](O)CC[C@]4(C)[C@H]3CC[C@]12C [Urosiol] | 0.807
19 | CC1CC(OC(=O)c2ccccc2O)CC(C)(C)C1 (centres undefined) [Homosalate] | 0.787
20 | NC[C@@H]1O[C@@H](O[C@H]2[C@H](O)[C@@H](O[C@H]3O[C@H](CO)[C@@H](O)[C@H](N)[C@H]3O)[C@H](N)C[C@@H]2N)[C@@H](O)[C@H](O)[C@H]1O [Kanamycin A sulfate] | 0.673
21 | N[C@@H](Cc1cc(I)c(Oc2ccc(O)c(I)c2)c(I)c1)C(=O)O [Liothyronine] | 0.756
22 | CN1CCC(=C2c3ccccc3Sc3ccccc32)CC1 [Pimethixene maleate] | 1.12

Nos. 7 to 8 of the list above:
Row | Compound | % Pdx1+ Ins1-low
7 | CN[C@@H]1[C@@H](O)[C@@H](O[C@@H]2[C@@H](O)[C@H](O[C@H]3OC(CN)=CC[C@H]3N)[C@@H](N)C[C@H]2N)OC[C@]1(C)O [Sisomicin sulfate] | 0.935
8 | Cc1cc(NS(=O)(=O)c2ccc(N)cc2)no1 [Sulfamethoxazole] | 1.01

Carrying on:

Row | Compound | % Pdx1+ Ins1-low
23 | O=C(O)c1ccccc1C(=O)Nc1ccc(S(=O)(=O)Nc2nccs2)cc1 [Phthalylsulfathiazole] | 0.763
24 | OCCN(CCO)c1nc(N2CCCCC2)c2nc(N(CCO)CCO)nc(N3CCCCC3)c2n1 [Dipyridamole] | 0.933
25 | CN1CCN(C(c2ccccc2)c2ccccc2)CC1 [Cyclizine hydrochloride] | 1.11
26 | COC(=O)C1=CO[C@@H](C)[C@H]2CN3CCc4c([nH]c5ccccc45)[C@@H]3C[C@H]12 [Ajmalicine hydrochloride] | 2.73
27 | c1ccc2c(CC3=NCCN3)cccc2c1 [Naphazoline hydrochloride] | 1.21
28 | CC(=O)OCC(=O)[C@@]12OC(C)(C)O[C@@H]1C[C@H]1[C@@H]3C[C@H](F)C4=CC(=O)C=C[C@]4(C)[C@@]3(F)[C@@H](O)C[C@@]12C [Fluocinonide] | 1.17
29 | CCN(CC)CC(=O)Nc1c(C)cccc1C [Lidocaïne hydrochloride] | 0.824
30 | CCC(=O)O[C@@H]1CC(=O)O[C@H](C)C/C=C/C=C/[C@H](O)[C@H](C)C[C@H](CC=O)[C@H](O[C@@H]2O[C@H](C)[C@@H](O[C@H]3C[C@@](C)(O)[C@@H](OC(=O)CC)[C@H](C)O3)[C@H](N(C)C)[C@H]2O)[C@H]1OC [Midecamycin] | 0.774
31 | CO[C@@H]1[C@@H](O[C@@H]2O[C@H](C)[C@@H](O[C@H]3C[C@@](C)(O)[C@@H](OC(=O)CC(C)C)[C@H](C)O3)[C@H](N(C)C)[C@H]2O)[C@@H](CC=O)C[C@@H](C)[C@@H](O)/C=C/C=C/C[C@@H](C)OC(=O)C[C@H]1OC(C)=O [Josamycin] | 0.619
32 | COc1cccc2c1C(=O)c1c(O)c3c(c(O)c1C2=O)C[C@@](O)(C(C)=O)C[C@@H]3O[C@H]1C[C@H](N)[C@H](O)[C@H](C)O1 [Daunorubicin hydrochloride] | 2.13
33 | CC(=O)NS(=O)(=O)c1ccc(N)cc1 [Sulfacetamide sodic hydrate] | 0.779
34 | NS(=O)(=O)c1cc2c(cc1C(F)(F)F)NCNS2(=O)=O [Hydroflumethiazide] | 0.674
35 | CC(C)NC[C@@H](O)COc1ccc(CC(N)=O)cc1 [(R)-(+)-Atenolol] | 1.32
36 | CC(O)Cn1cnc2c1c(=O)n(C)c(=O)n2C (centres undefined) [Proxyphylline] | 1.01
37 | Cc1c(NC(=O)c2cccnc2)c(=O)n(-c2ccccc2)n1C [Nifenazone] | 1.15
38 | CC[C@@H]1C(=O)OC[C@@H]1Cc1cncn1C [Pilocarpine nitrate] | 1.68
39 | CN1C(=O)CC[C@H]1c1cccnc1 [Cotinine (-)] | 0.594
40 | Cc1nc2ccccn2c(=O)c1CCN1CCC(C(=O)c2ccc(F)cc2)CC1 [Pirenperone] | 1.29
41 | N/C(=N\C(=O)c1nc(Cl)c(N)nc1N)NCc1ccccc1 [Benzamil hydrochloride] | 0.826
42 | O=C(CCNNC(=O)c1ccncc1)NCc1ccccc1 [Nialamide] | 0.967
43 | NC(=O)c1cnccn1 [Pyrazinamide] | 0.479
44 | CC(=O)O[C@H]1C(=O)[C@@]2(C)[C@H]([C@H](OC(=O)c3ccccc3)[C@]3(O)C[C@H](OC(=O)[C@H](O)[C@@H](NC(=O)c4ccccc4)c4ccccc4)C(C)=C1C3(C)C)[C@]1(OC(C)=O)CO[C@@H]1C[C@@H]2O [Paclitaxel] | 0.619

Source: the supplement of paper PMC4807443
